Measured values: PubChem BioAssay AID248 (DTP/NCI, 2004)
The list shows only some results of the screen, not a fair sample: it is rich in T/C values a quarter to a half above the control, in often repeated tests (any T/C) and in doses without a T/C. Further doses and runs are listed elsewhere. T/C is the treated group as % of the vehicle group. Some doses have a count of surviving animals in place of a T/C: the source holds a T/C of zero for them, seemingly a mark for toxic or unscored doses. Some survivor counts are full or nearly so, which does not show that the dose was tolerated: the source hardly ever lists a survival T/C far under the control, and the zero likely stands for such cases as well. Survivors were counted at the toxicity check, usually on the fifth day, unless a day is given; later deaths do not show. Schedules are NCI's codes, read here as Q, the interval in days (D) or hours (H), X, the number of doses. Some schedule codes hold Z or #, which are not explained here. Where survival is the endpoint, the PubChem record calls one and a half times the control and up active, and a quarter to a half above the control has no call in these data; cut-offs in other NCI protocols can differ.

Test system: L1210 leukemia ip in BDF1 mice, survival T/C
Assay: NCI In Vivo Anticancer Drug Screen. Data for tumor model L1210 Leukemia (intraperitoneal) in B6D2F1 (BDF1) mice
Conditions: T/C endpoint: mean survival time, higher T/C = longer survival
[1] = dose: 200.0 mg/kg/injection, schedule: Q01DX001 (ip), vehicle: saline
[2] = dose: 400.0 mg/kg/injection, schedule: Q01DX001 (ip), vehicle: saline
[3] = dose: 400.0 mg/kg/injection, schedule: Q04DX003 (ip), vehicle: Klucel (hydroxypropylcellulose) (HPC)
[4] = dose: 200.0 mg/kg/injection, schedule: Q01DX009 (ip), vehicle: saline
[5] = dose: 400.0 mg/kg/injection, schedule: Q01DX009 (ip), vehicle: saline
[6] = dose: 50.0 mg/kg/injection, schedule: Q01DX009 (ip), vehicle: saline
[7] = dose: 300.0 mg/kg/injection, schedule: Q01DX001 (ip), vehicle: carboxymethylcellulose (CMC)
[8] = dose: 400.0 mg/kg/injection, schedule: Q04DX003 (ip), vehicle: saline
[9] = dose: 400.0 mg/kg/injection, schedule: Q01DX009 (ip), vehicle: saline with Tween-80
[10] = dose: 400.0 mg/kg/injection, schedule: Q04DX002 (ip), vehicle: Klucel (hydroxypropylcellulose) (HPC)

**Q.** `OCC1(c2ccccc2)OC1(c1ccccc1)c1ccccc1` (configuration not stated) was tested. Which survivor count (dose: 50.0 mg/kg/injection, schedule: Q04DX002 (ip), vehicle: Klucel (hydroxypropylcellulose) (HPC)) did it give?
**A.** 1 of 3

**Q.** And the survivor count (dose: 100.0 mg/kg/injection, schedule: Q04DX002 (ip), vehicle: Klucel (hydroxypropylcellulose) (HPC))?
**A.** 0 of 3

**Q.** `CN(C)CCCN(C)CCCCN(C)CCCN(C)C` was tested. Which survivor count [1] did it give?
**A.** 2 of 4

**Q.** What about the survivor count [2] of the same compound?
**A.** 2 of 4

**Q.** With `CCOC(=O)c1cc(=O)c2c(ccc3ccccc32)[nH]1` as the compound, how does the survivor count [3] read?
**A.** 2 of 6

**Q.** With `Cc1nc2ccccc2cc1CCl` as the compound, how does the survivor count (dose: 300.0 mg/kg/injection, schedule: Q01DX001 (ip), vehicle: acetone) read?
**A.** 0 of 6

**Q.** With `O=C(O)c1cccc(N2C(=O)CSC2=S)c1` as the compound, how does the survivor count (dose: 25.0 mg/kg/injection, schedule: Q04DX002 (ip), vehicle: Klucel (hydroxypropylcellulose) (HPC)) read?
**A.** 3 of 3

**Q.** Which survivor count (dose: 100.0 mg/kg/injection, schedule: Q01DX009 (ip), vehicle: water) does the source give for `Nc1nc([Se])c2cc[nH]c2n1` here?
**A.** 3 of 6

**Q.** What about the survivor count (dose: 200.0 mg/kg/injection, schedule: Q04DX003 (ip), vehicle: water) of the same compound?
**A.** 3 of 6

**Q.** And the survivor count (dose: 400.0 mg/kg/injection, schedule: Q04DX003 (ip), vehicle: water)?
**A.** 1 of 6

**Q.** How did the survivor count [2] turn out when `CCCCc1nc2c(c(=O)n(C)c(=O)n2C)n1C` was run?
**A.** 0 of 4

**Q.** Which results are given for `CNC(=O)Oc1c(C)occc1=O`?
**A.** T/C (dose: 300.0 mg/kg/injection, schedule: Q01DX009 (ip), vehicle: other): 138 % of control; survivor count (dose: 450.0 mg/kg/injection, schedule: Q01DX009 (ip), vehicle: other): 1 of 6

**Q.** For `Clc1ccc(/C=C2\c3ccccc3-c3nc4ccccc4nc32)cc1`, which survivor count (dose: 300.0 mg/kg/injection, schedule: Q04DX003 (ip), vehicle: saline) is on record?
**A.** 6 of 6

**Q.** Which T/C [4] does the source give for `CN(C)C(=S)Nc1ccccc1` here?
**A.** 134 % of control

**Q.** And the survivor count (dose: 300.0 mg/kg/injection, schedule: Q01DX009 (ip), vehicle: Klucel (hydroxypropylcellulose) (HPC))?
**A.** 3 of 6

**Q.** What about the survivor count [5] of the same compound?
**A.** 1 of 6

**Q.** Which survivor count [6] does the source give for `OCC1OC(Nc2ncnc3c2ncn3C2OC(CO)C(O)C2O)C(O)C1O` (configuration not stated) here?
**A.** 0 of 6

**Q.** And the survivor count (dose: 100.0 mg/kg/injection, schedule: Q01DX005 (ip), vehicle: saline)?
**A.** 0 of 6

**Q.** What about the survivor count (dose: 200.0 mg/kg/injection, schedule: Q01DX005 (ip), vehicle: saline) of the same compound?
**A.** 0 of 6

**Q.** `CCC(C)C1NC(=O)C(C(C)=O)=C1O.[Cu+2]` (configuration not stated) was tested. Which survivor count (dose: 75.0 mg/kg/injection, schedule: Q01DX001 (ip), vehicle: carboxymethylcellulose (CMC)) did it give?
**A.** 3 of 6

**Q.** What about the survivor count [7] of the same compound?
**A.** 1 of 6

**Q.** With `COc1ccc(OC)c(-c2csc(=O)s2)c1` as the compound, how does the T/C (dose: 200.0 mg/kg/injection, schedule: Q04DX002 (ip), vehicle: Klucel (hydroxypropylcellulose) (HPC)) read?
**A.** 141 % of control

**Q.** Which survivor count (dose: 200.0 mg/kg/injection, schedule: Q04DX003 (ip), vehicle: saline with Tween-80) does the source give for `NNC(=O)c1ccc([N+](=O)[O-])cc1` here?
**A.** 6 of 6

**Q.** And the survivor count (dose: 400.0 mg/kg/injection, schedule: Q04DX003 (ip), vehicle: saline with Tween-80)?
**A.** 0 of 6

**Q.** With `Cc1cc(CSC2=NCCCN2)c(C)cc1CSC1=NCCCN1` as the compound, how does the survivor count (dose: 12.5 mg/kg/injection, schedule: Q01DX009 (ip), vehicle: saline) read?
**A.** 0 of 6

**Q.** What about the survivor count (dose: 25.0 mg/kg/injection, schedule: Q01DX009 (ip), vehicle: saline) of the same compound?
**A.** 0 of 6

**Q.** What about the survivor count [6] of the same compound?
**A.** 0 of 6

**Q.** And the survivor count (dose: 100.0 mg/kg/injection, schedule: Q01DX009 (ip), vehicle: saline)?
**A.** 0 of 6

**Q.** What about the survivor count [4] of the same compound?
**A.** 0 of 6

**Q.** What about the survivor count [5] of the same compound?
**A.** 0 of 6

**Q.** With `N=C(N)Sc1n[nH]c(=O)[nH]c1=O` as the compound, how does the survivor count (dose: 300.0 mg/kg/injection, schedule: Q01DX001 (ip), vehicle: alcohol) read?
**A.** 0 of 6

**Q.** With `C=CCCC1(CC=C)C(=O)NC(=O)NC1=O` as the compound, how does the survivor count (dose: 300.0 mg/kg/injection, schedule: Q01DX001 (ip), vehicle: saline) read?
**A.** 0 of 6

**Q.** With `CSc1nc(SCc2ccc(Cl)cc2)ncc1C` as the compound, how does the survivor count (dose: 25.0 mg/kg/injection, schedule: Q01DX Z (ip), vehicle: methylcellulose (MC)) read?
**A.** 6 of 6

**Q.** And the survivor count (dose: 100.0 mg/kg/injection, schedule: Q01DX Z (ip), vehicle: methylcellulose (MC))?
**A.** 6 of 6

**Q.** `O=[N+]([O-])c1cccc(S(=O)(=O)O)c1.[Fe]` was tested. Which survivor count [8] did it give?
**A.** 0 of 6

**Q.** For `O=C(CSc1cc(Cl)ccc1Cl)Nc1cccc(Br)c1`, which survivor count (dose: 200.0 mg/kg/injection, schedule: Q04DX003 (ip), vehicle: other) is on record?
**A.** 5 of 6

**Q.** Which survivor count (dose: 100.0 mg/kg/injection, schedule: Q01DX009 (ip), vehicle: saline with Tween-80) does the source give for `Nc1cnccc1NCCc1cccc(O)c1` here?
**A.** 6 of 6

**Q.** What about the survivor count [9] of the same compound?
**A.** 0 of 6

**Q.** With `CCCCCCCC/C=C\CCCCCCCCOC(=O)Cc1ccc(N(CCCl)CCCl)cc1` as the compound, how does the T/C (dose: 400.0 mg/kg/injection, schedule: Q01DX005 (ip), vehicle: Klucel (hydroxypropylcellulose) (HPC)) read?
**A.** 129 % of control

**Q.** For `CCCC(=O)CCN(C)Cc1ccccc1`, which survivor count [1] is on record?
**A.** 0 of 6

**Q.** And the survivor count [2]?
**A.** 1 of 6

**Q.** With `CC(=O)Nc1ccc(NC(=O)Nc2ccccc2C(F)(F)F)cc1` as the compound, how does the survivor count (dose: 400.0 mg/kg/injection, schedule: Q04DX002 (ip), vehicle: carboxymethylcellulose (CMC)) read?
**A.** 3 of 3

**Q.** With `CC(=O)CCCc1ccccc1` as the compound, how does the survivor count [8] read?
**A.** 2 of 6

**Q.** With `Cc1ccc(N(O)C(=O)Nc2ccccc2)cc1` as the compound, how does the survivor count (dose: 400.0 mg/kg/injection, schedule: Q01DX015 (ip), vehicle: methylcellulose (MC)) read?
**A.** 5 of 6

**Q.** How did the survivor count [7] turn out when `Nc1ccc(-c2ccc(Br)cc2)cc1` was run?
**A.** 1 of 6

**Q.** What does the source list for `CCC[CH2][Sn]([CH2]CCC)([CH2]CCC)[O]C(=O)CC[S][Sn]([CH2]CCC)([CH2]CCC)[CH2]CCC`?
**A.** survivor count (dose: 8.0 mg/kg/injection, schedule: Q01DX015 (ip), vehicle: saline): 4 of 6; survivor count (dose: 12.5 mg/kg/injection, schedule: Q01DX001 (ip), vehicle: saline): 2 of 4; survivor count (dose: 16.0 mg/kg/injection, schedule: Q01DX015 (ip), vehicle: saline): 0 of 6; survivor count (dose: 25.0 mg/kg/injection, schedule: Q01DX001 (ip), vehicle: saline): 0 of 4; survivor count (dose: 32.0 mg/kg/injection, schedule: Q01DX015 (ip), vehicle: saline): 0 of 6; survivor count (dose: 50.0 mg/kg/injection, schedule: Q01DX001 (ip), vehicle: saline): 0 of 4; survivor count (dose: 64.0 mg/kg/injection, schedule: Q01DX015 (ip), vehicle: saline): 0 of 6; survivor count (dose: 100.0 mg/kg/injection, schedule: Q01DX001 (ip), vehicle: saline): 0 of 4; survivor count (dose: 128.0 mg/kg/injection, schedule: Q01DX015 (ip), vehicle: saline): 0 of 6

**Q.** Which survivor count (dose: 200.0 mg/kg/injection, schedule: Q04DX003 (ip), vehicle: Klucel (hydroxypropylcellulose) (HPC)) does the source give for `N#CCCC(CCC#N)c1cccc(C(CCC#N)CCC#N)n1` here?
**A.** 6 of 6

**Q.** What about the survivor count [3] of the same compound?
**A.** 6 of 6

**Q.** What does the source list for `CCCCCc1c(C)nc([N+](=O)[O-])nc1N`?
**A.** survivor count (dose: 12.5 mg/kg/injection, schedule: Q01DX001 (ip), vehicle: saline with Tween-80): 0 of 6; survivor count (dose: 25.0 mg/kg/injection, schedule: Q01DX001 (ip), vehicle: saline with Tween-80): 0 of 6; survivor count (dose: 50.0 mg/kg/injection, schedule: Q01DX001 (ip), vehicle: saline with Tween-80): 0 of 6

**Q.** For `CC12CCC(O)CC1=CCC1C2CCC2(C)c3nc(C#N)c(=N)n(O)c3CC12` (configuration not stated), which survivor count [10] is on record?
**A.** 3 of 3

**Q.** Which survivor count (dose: 15.0 mg/kg/injection, schedule: Q01DX Z (ip), vehicle: water) does the source give for `CC1CN=C(Cc2ccc(NC(=O)c3ccc(C(=O)Nc4ccc(CC5=NCC(C)N5)cc4)cc3)cc2)N1` (configuration not stated) here?
**A.** 0 of 6

**Q.** What about the survivor count (dose: 30.0 mg/kg/injection, schedule: Q01DX Z (ip), vehicle: water) of the same compound?
**A.** 0 of 6

**Q.** With `CC(C)(C)Sc1ccncc1` as the compound, how does the survivor count [9] read?
**A.** 0 of 6

**Q.** `COc1cc(/C=C/C=C/C(=O)N2CCCCC2)ccc1O` was tested. Which survivor count (dose: 50.0 mg/kg/injection, schedule: Q01DX009 (ip), vehicle: saline with Tween-80) did it give?
**A.** 3 of 3

**Q.** For `CCOC(=O)CNc1cccc(C(F)(F)F)c1`, which survivor count (dose: 400.0 mg/kg/injection, schedule: Q01DX009 (ip), vehicle: carboxymethylcellulose (CMC)) is on record?
**A.** 3 of 6

**Q.** And the T/C [10]?
**A.** 125 % of control
